Values quoted from earlier work as cited in patent US20080268533A1, “Methods and Compositions Utilizing Myc and Gsk3Beta to Manipulate the Pluripotency of Embryonic Stem Cells” (University of Georgia Research Foundation, Inc., priority 2004, published 2008).
At least one compound was matched to its structure with a doubt left.

System: BG01 cells
Details: human ES cells treated with LY 294002 and activin; data not shown, U.S. Patent Application No. 60/601,664; cited from earlier work

For O=c1cc(N2CCOCC2)oc2c(-c3ccccc3)cccc12 [LY 294002], which definitive endoderm formation is on record?
The definitive endoderm formation was “induce definitive endoderm formation”.
